Experimental data: PubChem BioAssay AID504764 (Drosophila RNAi Screening Center, 2011)
In all, the deposit lists about 22,000 reagents; this is an unselected part of those that have a named target and a result. Of all reagents, 403 (1.9%) got an active call. 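Unnormalised raw counts per well; ratio z-scores behind the hit calls and whether each hit raises or lowers signal are not deposited.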 Unmarked entries are inactive. Names joined by + are all predicted targets of the reagent. Reagent sequences are not shown. Not stated in the record: the amount of reagent.

Assay: 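Genome-wide screen for regulators of Notch-driven gene expression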 (primary screen)
System: Drosophila Kc167 cells
Reagents: long dsRNA against Drosophila genes
Timing: about 5 days (4 days dsRNA, then 24 h after transfection)
Treatment: transfection of constitutively active membrane-tethered Notch lacking the extracellular domain, read 24 h later
Measurement: 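Light from a Notch-responsive E(spl)m3 luciferase reporter under active Notch, with control-promoter and no-Notch reporter wells to normalise; raw counts from paired wells a and b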
Direction: induced reporter light, run 1, well a and induced reporter light, run 1, well b: higher = more light from the Notch target reporter with active Notch; control promoter light, run 1, well a and control promoter light, run 1, well b: higher = more light from the viral control promoter (cell number, transfection, viability); uninduced reporter light, run 1, well a: higher = more light from the Notch target reporter without active Notch
Active means: 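Hit if the duplicate-averaged log2 ratio of induced to control-promoter light gives a plate-wise z beyond ±2, or induced to uninduced beyond ±1.8; weak-control or discordant-duplicate wells dropped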
Calls: active = modifier hit (raised or lowered Notch signal); inactive = not a hit

Which result is listed for CG11892 [DRSC14428]?
induced reporter light, run 1, well a: 1.61e5; induced reporter light, run 1, well b: 2.32e5; control promoter light, run 1, well a: 2.60e5; control promoter light, run 1, well b: 2.51e5; uninduced reporter light, run 1, well a: 12325

What did the screen give for CG15073 [DRSC06506]?
induced reporter light, run 1, well a: 50975; induced reporter light, run 1, well b: 37850; control promoter light, run 1, well a: 35620; control promoter light, run 1, well b: 38590; uninduced reporter light, run 1, well a: 4300

Which result is listed for CG44001 + CG33995 [DRSC00853]?
induced reporter light, run 1, well a: 1.32e5; induced reporter light, run 1, well b: 1.00e5; control promoter light, run 1, well a: 1.35e5; control promoter light, run 1, well b: 1.70e5; uninduced reporter light, run 1, well a: 8185

How did the screen score CG44001 + CG33995 [DRSC02898]?
induced reporter light, run 1, well a: 2.15e5; induced reporter light, run 1, well b: 2.24e5; control promoter light, run 1, well a: 2.82e5; control promoter light, run 1, well b: 2.88e5; uninduced reporter light, run 1, well a: 18570

What is on record for CG8353 [DRSC03084]?
induced reporter light, run 1, well a: 1.44e5; induced reporter light, run 1, well b: 1.41e5; control promoter light, run 1, well a: 78765; control promoter light, run 1, well b: 1.08e5; uninduced reporter light, run 1, well a: 18580

With CG5662 [DRSC19957], what was measured?
induced reporter light, run 1, well a: 1.64e5; induced reporter light, run 1, well b: 1.88e5; control promoter light, run 1, well a: 2.85e5; control promoter light, run 1, well b: 2.67e5; uninduced reporter light, run 1, well a: 12638

Part of the list above, set out differently:
gene knocked down,amplicon,"induced reporter light, run 1, well a","induced reporter light, run 1, well b","control promoter light, run 1, well a","control promoter light, run 1, well b","uninduced reporter light, run 1, well a"
CG8353,DRSC03084,1.44e5,1.41e5,78765,1.08e5,18580
CG5662,DRSC19957,1.64e5,1.88e5,2.85e5,2.67e5,12638

Additional reagents:
With mip130 (Myb-interacting protein 130) [DRSC18575], how do the results read?
induced reporter light, run 1, well a: 26455; induced reporter light, run 1, well b: 27630; control promoter light, run 1, well a: 44305; control promoter light, run 1, well b: 53525; uninduced reporter light, run 1, well a: 2442

What did the screen give for CG13681 (retired record) [DRSC08906]?
induced reporter light, run 1, well a: 2.17e5; induced reporter light, run 1, well b: 2.11e5; control promoter light, run 1, well a: 2.77e5; control promoter light, run 1, well b: 2.45e5; uninduced reporter light, run 1, well a: 12260

With CG13681 (retired record) [DRSC08907], how do the results read?
induced reporter light, run 1, well a: 2.38e5; induced reporter light, run 1, well b: 2.21e5; control promoter light, run 1, well a: 2.95e5; control promoter light, run 1, well b: 3.40e5; uninduced reporter light, run 1, well a: 18305

What did the screen give for CG13681 (retired record) [DRSC10038]?
induced reporter light, run 1, well a: 2.22e5; induced reporter light, run 1, well b: 2.61e5; control promoter light, run 1, well a: 2.80e5; control promoter light, run 1, well b: 2.75e5; uninduced reporter light, run 1, well a: 9400

What did the screen give for CG13681 (retired record) [DRSC10039]?
induced reporter light, run 1, well a: 1.69e5; induced reporter light, run 1, well b: 1.57e5; control promoter light, run 1, well a: 1.91e5; control promoter light, run 1, well b: 1.71e5; uninduced reporter light, run 1, well a: 19015

How did the screen score CG13681 (retired record) [DRSC10927]?
induced reporter light, run 1, well a: 2.07e5; induced reporter light, run 1, well b: 2.10e5; control promoter light, run 1, well a: 3.06e5; control promoter light, run 1, well b: 1.89e5; uninduced reporter light, run 1, well a: 10170

With CG13681 (retired record) [DRSC10929], what does the deposit list?
induced reporter light, run 1, well a: 1.09e5; induced reporter light, run 1, well b: 1.06e5; control promoter light, run 1, well a: 75015; control promoter light, run 1, well b: 53815; uninduced reporter light, run 1, well a: 10410
